The other results are listed elsewhere or left out. Most values lie at the level of the controls, where differences are scatter.

Protein sequences, listed by entry. Tags and fused reporters are not part of them. Lines headed by an entry give the natural chain unless they say otherwise; changes in a name come on top.
UniProt O15247: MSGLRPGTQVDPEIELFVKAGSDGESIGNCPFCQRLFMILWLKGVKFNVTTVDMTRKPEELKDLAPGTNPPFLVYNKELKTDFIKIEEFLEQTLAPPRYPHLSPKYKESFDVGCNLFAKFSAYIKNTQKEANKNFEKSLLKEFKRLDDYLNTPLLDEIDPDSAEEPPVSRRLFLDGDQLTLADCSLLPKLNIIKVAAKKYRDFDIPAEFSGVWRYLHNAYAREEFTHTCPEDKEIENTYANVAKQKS
UniProt O15519, whole entry, looked up: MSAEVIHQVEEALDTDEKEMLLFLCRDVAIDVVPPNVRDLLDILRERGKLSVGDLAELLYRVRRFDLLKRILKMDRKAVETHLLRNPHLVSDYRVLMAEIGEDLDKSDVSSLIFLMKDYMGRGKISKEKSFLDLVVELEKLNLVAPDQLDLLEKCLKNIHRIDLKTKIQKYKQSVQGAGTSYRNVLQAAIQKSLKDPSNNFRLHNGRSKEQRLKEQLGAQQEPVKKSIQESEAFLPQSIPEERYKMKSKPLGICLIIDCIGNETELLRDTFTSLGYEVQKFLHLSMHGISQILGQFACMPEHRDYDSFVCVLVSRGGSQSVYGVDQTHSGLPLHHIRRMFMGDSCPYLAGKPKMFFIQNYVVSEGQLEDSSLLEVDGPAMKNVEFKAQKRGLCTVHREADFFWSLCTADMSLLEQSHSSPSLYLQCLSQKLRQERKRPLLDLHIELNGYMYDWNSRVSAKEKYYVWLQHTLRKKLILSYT
UniProt G2XKQ0: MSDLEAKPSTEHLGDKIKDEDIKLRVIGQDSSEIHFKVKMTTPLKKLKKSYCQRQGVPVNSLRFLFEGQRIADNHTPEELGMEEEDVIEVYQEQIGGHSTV
UniProt O15230: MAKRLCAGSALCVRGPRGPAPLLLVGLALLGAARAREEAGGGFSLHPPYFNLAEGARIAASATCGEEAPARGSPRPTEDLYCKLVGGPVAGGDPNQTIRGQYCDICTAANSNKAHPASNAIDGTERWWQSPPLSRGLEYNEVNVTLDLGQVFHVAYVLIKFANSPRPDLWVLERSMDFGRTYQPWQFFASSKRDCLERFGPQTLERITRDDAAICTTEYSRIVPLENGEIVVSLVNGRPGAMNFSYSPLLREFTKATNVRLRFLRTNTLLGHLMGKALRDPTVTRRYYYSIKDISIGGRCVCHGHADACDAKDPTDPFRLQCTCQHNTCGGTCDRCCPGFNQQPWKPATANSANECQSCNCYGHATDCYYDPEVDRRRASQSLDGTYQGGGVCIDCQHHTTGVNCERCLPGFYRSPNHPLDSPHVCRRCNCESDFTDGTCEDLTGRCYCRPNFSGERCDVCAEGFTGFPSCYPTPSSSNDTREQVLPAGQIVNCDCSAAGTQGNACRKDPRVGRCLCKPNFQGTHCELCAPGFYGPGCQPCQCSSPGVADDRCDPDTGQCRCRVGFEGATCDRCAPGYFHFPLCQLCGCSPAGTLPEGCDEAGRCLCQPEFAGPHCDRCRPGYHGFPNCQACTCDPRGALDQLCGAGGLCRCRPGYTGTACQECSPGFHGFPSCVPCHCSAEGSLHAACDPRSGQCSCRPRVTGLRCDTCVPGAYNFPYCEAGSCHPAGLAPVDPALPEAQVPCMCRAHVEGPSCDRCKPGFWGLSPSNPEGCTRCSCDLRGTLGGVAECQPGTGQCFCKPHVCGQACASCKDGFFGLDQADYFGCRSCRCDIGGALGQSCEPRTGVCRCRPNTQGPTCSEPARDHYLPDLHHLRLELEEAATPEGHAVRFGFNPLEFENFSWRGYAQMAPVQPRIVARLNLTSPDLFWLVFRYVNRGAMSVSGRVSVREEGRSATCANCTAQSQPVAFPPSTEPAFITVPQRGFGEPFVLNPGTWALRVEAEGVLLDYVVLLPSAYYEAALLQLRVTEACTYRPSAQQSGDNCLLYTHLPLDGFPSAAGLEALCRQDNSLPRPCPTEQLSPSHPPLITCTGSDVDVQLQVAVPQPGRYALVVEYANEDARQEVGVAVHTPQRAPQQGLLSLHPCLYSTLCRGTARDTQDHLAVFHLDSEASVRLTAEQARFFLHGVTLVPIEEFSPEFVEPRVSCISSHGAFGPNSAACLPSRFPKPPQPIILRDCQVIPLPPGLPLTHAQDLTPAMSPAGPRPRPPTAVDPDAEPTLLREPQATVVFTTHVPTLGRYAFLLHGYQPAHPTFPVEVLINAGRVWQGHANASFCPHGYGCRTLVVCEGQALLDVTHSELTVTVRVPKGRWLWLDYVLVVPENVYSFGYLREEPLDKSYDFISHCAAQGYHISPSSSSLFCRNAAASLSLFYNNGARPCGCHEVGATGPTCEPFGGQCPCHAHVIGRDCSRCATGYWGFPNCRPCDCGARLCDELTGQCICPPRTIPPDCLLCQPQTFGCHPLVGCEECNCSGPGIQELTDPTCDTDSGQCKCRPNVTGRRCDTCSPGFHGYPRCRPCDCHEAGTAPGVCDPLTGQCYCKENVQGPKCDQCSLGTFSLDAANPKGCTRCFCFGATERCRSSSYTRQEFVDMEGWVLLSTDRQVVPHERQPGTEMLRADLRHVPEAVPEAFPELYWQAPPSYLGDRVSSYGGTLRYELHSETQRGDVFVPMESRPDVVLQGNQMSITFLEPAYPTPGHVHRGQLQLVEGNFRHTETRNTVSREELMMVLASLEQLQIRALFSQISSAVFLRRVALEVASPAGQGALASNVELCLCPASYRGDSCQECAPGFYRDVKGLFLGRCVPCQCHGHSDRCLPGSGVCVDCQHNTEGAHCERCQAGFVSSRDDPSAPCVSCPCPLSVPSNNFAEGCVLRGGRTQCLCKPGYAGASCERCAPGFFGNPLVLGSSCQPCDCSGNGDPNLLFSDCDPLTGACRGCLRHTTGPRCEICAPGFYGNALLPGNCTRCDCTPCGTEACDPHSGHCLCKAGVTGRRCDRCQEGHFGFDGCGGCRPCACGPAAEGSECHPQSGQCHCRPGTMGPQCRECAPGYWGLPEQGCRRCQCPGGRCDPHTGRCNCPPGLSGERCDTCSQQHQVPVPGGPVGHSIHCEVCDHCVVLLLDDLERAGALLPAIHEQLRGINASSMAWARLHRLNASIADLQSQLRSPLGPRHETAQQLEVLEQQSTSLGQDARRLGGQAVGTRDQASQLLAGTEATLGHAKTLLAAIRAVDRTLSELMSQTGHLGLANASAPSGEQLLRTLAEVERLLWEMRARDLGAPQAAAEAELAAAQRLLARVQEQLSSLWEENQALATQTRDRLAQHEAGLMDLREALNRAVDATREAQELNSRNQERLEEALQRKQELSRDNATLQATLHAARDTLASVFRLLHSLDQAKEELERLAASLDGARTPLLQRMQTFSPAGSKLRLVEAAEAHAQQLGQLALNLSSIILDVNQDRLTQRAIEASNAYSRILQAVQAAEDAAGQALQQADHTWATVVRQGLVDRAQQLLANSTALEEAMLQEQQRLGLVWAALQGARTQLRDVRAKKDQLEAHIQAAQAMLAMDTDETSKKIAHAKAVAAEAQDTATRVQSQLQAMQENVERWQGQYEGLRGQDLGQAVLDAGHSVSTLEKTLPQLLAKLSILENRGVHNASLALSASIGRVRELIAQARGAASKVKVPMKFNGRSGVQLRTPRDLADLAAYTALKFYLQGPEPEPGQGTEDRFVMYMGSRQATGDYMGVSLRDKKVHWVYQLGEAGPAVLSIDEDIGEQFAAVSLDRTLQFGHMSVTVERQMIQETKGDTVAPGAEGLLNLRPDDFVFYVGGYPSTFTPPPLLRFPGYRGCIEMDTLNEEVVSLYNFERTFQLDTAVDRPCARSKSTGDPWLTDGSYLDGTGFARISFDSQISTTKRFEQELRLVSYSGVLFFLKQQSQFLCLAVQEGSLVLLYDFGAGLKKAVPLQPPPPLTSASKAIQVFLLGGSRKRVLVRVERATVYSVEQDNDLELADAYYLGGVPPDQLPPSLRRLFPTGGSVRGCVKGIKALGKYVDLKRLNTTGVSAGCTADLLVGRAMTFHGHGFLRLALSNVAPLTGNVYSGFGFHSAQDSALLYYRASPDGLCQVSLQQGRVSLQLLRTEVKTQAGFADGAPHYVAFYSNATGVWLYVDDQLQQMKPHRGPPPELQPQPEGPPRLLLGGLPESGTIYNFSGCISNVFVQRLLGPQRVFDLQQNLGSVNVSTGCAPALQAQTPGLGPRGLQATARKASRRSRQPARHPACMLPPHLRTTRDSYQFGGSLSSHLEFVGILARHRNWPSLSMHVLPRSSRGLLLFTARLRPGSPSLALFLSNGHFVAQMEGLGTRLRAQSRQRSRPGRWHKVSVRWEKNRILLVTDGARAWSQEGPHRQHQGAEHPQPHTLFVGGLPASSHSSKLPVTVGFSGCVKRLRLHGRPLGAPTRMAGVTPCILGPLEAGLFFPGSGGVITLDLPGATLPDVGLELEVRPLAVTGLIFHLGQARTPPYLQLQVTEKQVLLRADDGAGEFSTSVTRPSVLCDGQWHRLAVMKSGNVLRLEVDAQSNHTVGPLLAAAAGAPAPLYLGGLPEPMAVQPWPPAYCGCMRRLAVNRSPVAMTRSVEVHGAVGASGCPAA
UniProt O14979: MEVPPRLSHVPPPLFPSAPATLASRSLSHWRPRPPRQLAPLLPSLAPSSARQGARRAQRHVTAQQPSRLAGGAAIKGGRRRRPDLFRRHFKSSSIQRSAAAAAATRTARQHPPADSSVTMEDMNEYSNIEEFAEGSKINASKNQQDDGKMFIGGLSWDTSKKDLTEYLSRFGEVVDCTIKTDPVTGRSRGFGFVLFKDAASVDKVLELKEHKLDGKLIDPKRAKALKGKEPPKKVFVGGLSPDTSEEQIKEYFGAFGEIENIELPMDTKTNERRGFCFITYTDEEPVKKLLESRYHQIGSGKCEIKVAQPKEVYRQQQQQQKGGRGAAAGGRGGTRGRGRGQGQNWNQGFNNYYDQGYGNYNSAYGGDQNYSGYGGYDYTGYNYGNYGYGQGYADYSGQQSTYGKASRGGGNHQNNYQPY
UniProt O14980, whole entry: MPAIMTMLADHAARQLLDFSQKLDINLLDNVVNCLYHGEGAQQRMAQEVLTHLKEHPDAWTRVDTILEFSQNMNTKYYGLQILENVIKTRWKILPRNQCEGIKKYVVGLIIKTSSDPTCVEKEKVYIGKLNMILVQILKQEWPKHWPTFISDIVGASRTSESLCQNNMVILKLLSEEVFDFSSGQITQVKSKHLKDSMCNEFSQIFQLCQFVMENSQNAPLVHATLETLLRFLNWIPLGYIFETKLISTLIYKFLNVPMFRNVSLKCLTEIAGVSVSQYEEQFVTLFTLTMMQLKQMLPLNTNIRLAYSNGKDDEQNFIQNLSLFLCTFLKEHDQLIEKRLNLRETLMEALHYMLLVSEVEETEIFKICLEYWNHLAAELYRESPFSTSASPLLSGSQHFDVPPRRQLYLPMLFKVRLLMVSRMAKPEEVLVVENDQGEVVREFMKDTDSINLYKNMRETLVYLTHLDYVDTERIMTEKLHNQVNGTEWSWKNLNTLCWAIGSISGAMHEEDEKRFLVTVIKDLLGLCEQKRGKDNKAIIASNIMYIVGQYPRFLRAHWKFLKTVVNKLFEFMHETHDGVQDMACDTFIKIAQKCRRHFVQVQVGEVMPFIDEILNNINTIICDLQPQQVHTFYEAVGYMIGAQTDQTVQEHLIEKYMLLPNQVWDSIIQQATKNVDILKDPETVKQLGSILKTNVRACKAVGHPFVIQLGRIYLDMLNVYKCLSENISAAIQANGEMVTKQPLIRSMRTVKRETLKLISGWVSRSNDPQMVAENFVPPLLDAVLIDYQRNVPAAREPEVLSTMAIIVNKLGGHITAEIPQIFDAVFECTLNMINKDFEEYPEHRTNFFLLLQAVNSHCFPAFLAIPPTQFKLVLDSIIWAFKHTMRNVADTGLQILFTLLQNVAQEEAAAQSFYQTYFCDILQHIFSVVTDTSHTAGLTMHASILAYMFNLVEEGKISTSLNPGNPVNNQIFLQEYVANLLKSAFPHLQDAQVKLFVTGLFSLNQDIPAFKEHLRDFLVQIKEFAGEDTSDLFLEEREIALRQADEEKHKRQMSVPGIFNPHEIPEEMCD
UniProt O00463: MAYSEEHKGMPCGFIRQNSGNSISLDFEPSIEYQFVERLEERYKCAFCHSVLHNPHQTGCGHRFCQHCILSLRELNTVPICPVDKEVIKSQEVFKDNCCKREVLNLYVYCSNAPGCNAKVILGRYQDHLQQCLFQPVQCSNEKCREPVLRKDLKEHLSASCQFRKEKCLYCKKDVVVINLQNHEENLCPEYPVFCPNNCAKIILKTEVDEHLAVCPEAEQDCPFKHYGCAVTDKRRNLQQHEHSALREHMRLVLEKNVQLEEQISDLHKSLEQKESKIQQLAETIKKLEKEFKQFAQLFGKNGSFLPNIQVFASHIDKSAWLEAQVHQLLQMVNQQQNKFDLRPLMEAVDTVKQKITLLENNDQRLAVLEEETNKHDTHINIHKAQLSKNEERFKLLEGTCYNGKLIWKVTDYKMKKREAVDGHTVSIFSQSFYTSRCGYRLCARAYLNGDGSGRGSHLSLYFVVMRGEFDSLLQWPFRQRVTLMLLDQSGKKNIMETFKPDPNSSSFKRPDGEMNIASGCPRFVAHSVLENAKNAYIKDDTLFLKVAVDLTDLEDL

Compound in this assay: Cc1nc(Nc2ncc(C(=O)Nc3c(C)cccc3Cl)s2)cc(N2CCN(CCO)CC2)n1 [dasatinib]
Put plainly: log2 fold change of tryptic peptide abundance, ligand vs vehicle (limited proteolysis) (log2 ratio); higher = more trypsin-susceptible (destabilized). To be noted: ligand concentration: 5 uM; sample: K562 cleared lysate.
“CLIC2 (peptide sequence: YRDFDIPAEFSGVWR, peptide start residue: 200) (UniProt O15247)”: the log2 fold change was -0.252.

“CFLAR (peptide sequence: DVAIDVVPPNVR, peptide start residue: 27) (UniProt O15519)”: the log2 fold change stood at 0.17.

Turning to “FANCG (peptide sequence: VLETQEQQGPR, peptide start residue: 103) (UniProt O15287)”, the log2 fold change was -0.357.

Consider “UniProt G2XKQ0 (peptide sequence: VIGQDSSEIHFK, peptide start residue: 26)”, for which the log2 fold change was determined as 0.0861.

For the target “IPO5 (peptide sequence: EHIMQMLQNPDWK, peptide start residue: 361) (UniProt O00410)”, the log2 fold change was -0.301.

Turning to “UniProt H3BV60 (peptide sequence: RPLFSLK, peptide start residue: 60)”, the log2 fold change stood at 0.196.

Regarding “LAMA5 (peptide sequence: AVAAEAQDTATR, peptide start residue: 2634) (UniProt O15230)”, the log2 fold change was -0.312.

As for “UniProt O14979 (peptide sequence: DLTEYLSR, peptide start residue: 163)”, the log2 fold change came to 0.0641.

As for “KIAA1324L (peptide sequence: KNQKLEYK, peptide start residue: 952) (UniProt A8MWY0)”, the log2 fold change turned out to be 0.144.

“XPO1 (peptide sequence: AVGHPFVIQLGR, peptide start residue: 701) (UniProt O14980)”: the log2 fold change was -0.197.

In the case of “TRAF5 (peptide sequence: HYGCAVTDK, peptide start residue: 226) (UniProt O00463)”, the log2 fold change was 0.4.

The record behind these values is the supplement of paper PMC12819154, “High-throughput peptide-centric local stability assay extends protein–ligand identification to membrane proteins, tissues and bacteria” (Nature Structural & Molecular Biology, 2025).
